Values from PubChem BioAssay AID1259299 (Sanger Institute, 2017).
Shown is an unselected part of 794 reagents tested. 9 of all reagents (1.1%) were called active. 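Calls rest on knock-down alone; synergy scores play no part in calls, and no gene passed the synergy cut.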 Viability is capped at 1. The record does not give: the amount of reagent, the time to read-out.

Aim: 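Essential genes and drug-synergistic partners among kinases and colorectal mutation genes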 (primary screen)
Cells: human CAR1 colorectal cancer cells
Reagent: siRNA pool against human genes
Treatment: anchor drug BYL719 1 µM, cetuximab 5 µg/ml or trametinib 10 nM, or DMSO vehicle alone; exposure length not given
Measured: 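Mean replicate viability versus non-targeting controls, turned into robust z-scores, plus drug synergy scores for BYL719, cetuximab and trametinib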
Reading the numbers: viability robust z-score, knock-down alone and viability, knock-down alone (DMSO): higher = more viable cells; synergy score with BYL719 and synergy score with cetuximab and synergy score with trametinib: higher = stronger synergy with drug (synthetic lethal)
Call rule: 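a gene is called essential if its knock-down-alone viability z-score drops under -3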
Meaning of the calls: active = essential (knock-down alone); inactive = no change

target gene	PubChem SID	viability robust z-score, knock-down alone	viability, knock-down alone (DMSO) (fraction of control)	synergy score with BYL719	synergy score with cetuximab	synergy score with trametinib	Outcome
CAMK2A	SID56478931	0.789	1	-0.0874	-0.049	0.0919	inactive
PKLR	SID152148534	0.452	0.969	-0.168	-0.102	0.0665	inactive
ATP23	SID152151481	-0.0731	0.92	-0.0436	-0.0864	-0.0415	inactive
POLR2B	SID134315545	0.415	0.965	-0.0388	-0.0218	-0.102	inactive
MLKL	SID56479010	-0.62	0.87	-0.00923	-0.0413	-0.0137	inactive
ATM	SID152150358	0.551	0.978	-0.019	0.0126	-0.0515	inactive
TNK1	SID152152407	0.789	1	-0.00281	-0.073	-0.0964	inactive
ADCK2	SID56478993	0.211	0.947	-0.0289	-0.0497	0.0121	inactive
CDKN1C	SID56478604	0.637	0.986	-0.095	0.0748	-0.00323	inactive
CSNK2A2	SID56478861	-3.94	0.564	-0.169	-0.164	-0.198	active
NF1	SID152155944	0.789	1	-0.0776	-0.0399	0.0641	inactive
SKAP1	SID152154182	0.656	0.988	-0.166	-0.0844	-0.22	inactive
TBX3	SID134316486	0.789	1	-0.077	-0.0212	-0.0944	inactive
PRKG2	SID56478832	0.789	1	-0.176	-0.062	-0.0589	inactive
CSNK1D	SID56478658	0.165	0.942	-0.168	-0.119	-0.185	inactive
RELA	SID135620694	-1.64	0.776	-0.138	-0.104	0.0193	inactive
PIKFYVE	SID152154410	0.699	0.992	-0.206	-0.0753	-0.128	inactive
MAP4K3	SID135620707	0.396	0.964	-0.112	-0.017	0.0531	inactive
IP6K2	SID56479106	-0.718	0.861	-0.168	-0.0931	0.065	inactive

As entered above.
Under “viability, knock-down alone (DMSO) (fraction of control)”, SKAP1 [SID152154182] shows 0.988
Value of IP6K2 [SID56479106] under “viability, knock-down alone (DMSO) (fraction of control)”: 0.861
For “synergy score with cetuximab”, PKLR [SID152148534] reads -0.102
Result for ATM [SID152150358] in “Outcome”: inactive
Under “viability, knock-down alone (DMSO) (fraction of control)”, CSNK2A2 [SID56478861] reads 0.564

The results go on:
target gene	PubChem SID	viability robust z-score, knock-down alone	viability, knock-down alone (DMSO) (fraction of control)	synergy score with BYL719	synergy score with cetuximab	synergy score with trametinib	Outcome
ITPKB	SID56479111	0.789	1	-0.206	-0.073	-0.0909	inactive
HCK	SID135620622	0.789	1	-0.0684	-0.0399	-0.132	inactive
PRKAR1A	SID135621428	-0.257	0.903	-0.201	-0.0627	-0.111	inactive
DCLK1	SID56478913	0.789	1	-0.0762	-0.0727	-0.144	inactive
RPS6KA4	SID152147672	-0.36	0.894	-0.0717	-0.0982	-0.128	inactive
PRKDC	SID56478960	-1.88	0.753	-0.124	-0.139	0.00941	inactive
SRC	SID56478553	0.789	1	-0.168	0.00591	-0.15	inactive
TAOK2	SID57288958	0.789	1	-0.141	-0.073	-0.126	inactive
AGK	SID56479172	0.789	1	-0.147	-0.073	-0.158	inactive
MAP3K2	SID135620706	0.789	1	-0.182	-0.073	-0.221	inactive
ETNK2	SID56478982	-0.0738	0.92	-0.0989	0.0288	-0.138	inactive
TP53	SID135620665	-0.787	0.854	-0.116	-0.104	-0.108	inactive
XYLB	SID152153831	-0.524	0.879	-0.202	-0.185	-0.163	inactive
PPP2R1A	SID135621908	0.789	1	-0.206	-0.073	-0.175	inactive
MTOR	SID135620602	-0.551	0.876	-0.194	-0.0272	-0.0389	inactive
DLG2	SID152155470	-0.146	0.914	-0.199	-0.121	-0.155	inactive
CHKA	SID135621235	-0.78	0.855	-0.112	-0.14	-0.0849	inactive
NEK9	SID56478903	0.264	0.952	0.0169	-0.0517	-0.0183	inactive
HK2	SID56479103	-0.471	0.884	-0.158	-0.0941	-0.103	inactive
DGKI	SID56479093	0.789	1	-0.198	0.0489	-0.158	inactive
CSNK1A1	SID152148946	0.111	0.937	-0.0581	-0.0587	0.0117	inactive
RPS6KB2	SID152153683	0.789	1	-0.09	-0.073	-0.156	inactive
AKT2	SID135620600	-1.38	0.8	-0.0753	-0.209	0.0172	inactive
KHK	SID135621242	-0.132	0.915	-0.0838	0.0576	0.00644	inactive
PRKAR2B	SID56479179	-1.2	0.817	-0.159	-0.0687	-0.19	inactive
NIM1K	SID56478948	0.789	1	-0.203	-0.073	-0.179	inactive
LCK	SID152150546	-0.161	0.912	-0.15	-0.154	-0.147	inactive
WNK1	SID152148140	0.789	1	-0.0389	0.0326	0.092	inactive
FBXW7	SID152153107	0.789	1	-0.123	-0.073	0.0115	inactive
EPHB6	SID152155826	0.519	0.975	-0.0488	-0.0736	-0.0392	inactive
SPEG	SID56479185	0.789	1	-0.13	-0.0128	-0.0514	inactive
